Measurements published in patent publication US20050238679A1, “Taurine-containing preparations for improving the skin barrier” (Beiersdorf AG, priority 2004, published 2005).
At least one compound was matched to its structure with a doubt left.

Test: interfacial tension towards water as measure of polarity of lipids
Format: physicochemical
Details: lipid/oil component against water; regarded as polar if less than 30 mN/m
Source text: Oils and fats differ from one another in their polarity, which is difficult to define. It has already been proposed to adopt the interfacial tension towards water as a measure of the polarity index of an oil or of an oily phase. Then, the lower the interfacial tension between this oily phase and water, the greater the polarity of the oily phase in question. According to the invention, the interfacial tension is regarded as one possible measure of the polarity of a given oil component.
The interfacial tension is the force which acts on an imaginary line one meter in length in the interface between two phases. The physical unit for this interfacial tension is conventionally calculated from the force/length relationship and is usually expressed in mN/m (millinewtons divided by meters). It has a positive sign if it endeavours to reduce the interface. In the converse case, it has a negative sign. For the purposes of the present invention, lipids are regarded as polar if their interfacial tension towards water is less than 30 mN/m.
Nonpolar oils are, for example, those which are chosen from the group of branched and unbranched hydrocarbons and hydrocarbon waxes, in particular Vaseline (petrolatum), paraffin oil, squalane and squalene, polyolefins and hydrogenated polyisobutenes. Among the polyolefins, polydecenes are the preferred substances.

SMILES: CCCCCCCCCCC(CO)CCCCCC (stereo not shown) [ISOFOI ® 16, Hexyl Decanol]
- interfacial tension towards water: 24.3 mN/m
